Results reported in publication PMC12622440.
Results are given in words; binding and its absence hold for the method and conditions named. Binding seen in cells or lysates may run through a third protein. Some results given as binding are weak or reduced against the parent protein; the word gives no strength.

Protein sequences, listed by entry. Tags and fused reporters are not part of them.
UniProt Q15717: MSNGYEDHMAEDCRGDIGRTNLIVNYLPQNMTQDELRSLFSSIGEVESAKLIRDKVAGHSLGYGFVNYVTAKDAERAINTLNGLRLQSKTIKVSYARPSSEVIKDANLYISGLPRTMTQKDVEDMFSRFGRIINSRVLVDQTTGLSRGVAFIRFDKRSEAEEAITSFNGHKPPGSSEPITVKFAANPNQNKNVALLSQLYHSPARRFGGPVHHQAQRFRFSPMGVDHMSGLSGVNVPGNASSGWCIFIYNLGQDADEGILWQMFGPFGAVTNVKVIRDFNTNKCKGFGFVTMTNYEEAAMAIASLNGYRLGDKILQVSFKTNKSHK

T1: GGH domain 1 (signal domain, amino acids 1-24) (UniProt Q92820)
T1 sequence: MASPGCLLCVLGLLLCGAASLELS

T2: GGH domain 2 (peptidase domain, amino acids 25-318) (UniProt Q92820)
T2 sequence: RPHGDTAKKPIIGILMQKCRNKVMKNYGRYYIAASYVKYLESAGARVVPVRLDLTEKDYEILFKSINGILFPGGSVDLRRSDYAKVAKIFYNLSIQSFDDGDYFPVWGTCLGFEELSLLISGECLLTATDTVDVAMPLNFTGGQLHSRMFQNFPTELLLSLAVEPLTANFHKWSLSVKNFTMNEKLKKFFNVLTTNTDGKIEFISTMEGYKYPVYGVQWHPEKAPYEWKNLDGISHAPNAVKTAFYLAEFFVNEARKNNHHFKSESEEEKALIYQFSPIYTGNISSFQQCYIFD


Key:
Assay in all cases: co-IP; 293T cells with exogenously expressed GGH (or GGH domain 1 or 2) and HuR, reciprocal precipitation, NP40 lysis buffer, Western blot; full-length GGH also with or without RNase A (pull-down of HuR reduced after RNase A)
[1] = molecular target: T1, GGH domain 1 (signal domain, amino acids 1-24)
[2] = molecular target: T2, GGH domain 2 (peptidase domain, amino acids 25-318)
[3] = molecular target: HuR, exogenously expressed in 293T cells (UniProt Q15717)

Molecule	binding [1]	binding [2]	binding [3]
HuR, exogenously expressed in 293T cells (from UniProt Q15717 1-326)	binds	binds	–
GGH domain 2 (peptidase domain, amino acids 25-318) (domain or fragment, UniProt Q92820 25-318) RPHGDTAKKPIIGILMQKCRNKVMKNYGRYYIAASYVKYLESAGARVVPVRLDLTEKDYEILFKSINGILFPGGSVDLRRSDYAKVAKIFYNLSIQSFDDGDYFPVWGTCLGFEELSLLISGECLLTATDTVDVAMPLNFTGGQLHSRMFQNFPTELLLSLAVEPLTANFHKWSLSVKNFTMNEKLKKFFNVLTTNTDGKIEFISTMEGYKYPVYGVQWHPEKAPYEWKNLDGISHAPNAVKTAFYLAEFFVNEARKNNHHFKSESEEEKALIYQFSPIYTGNISSFQQCYIFD	–	–	binds
MASPGCLLCVLGLLLCGAASLELS (domain or fragment, UniProt Q92820 1-24) [GGH domain 1 (signal domain, amino acids 1-24)]	–	–	binds
